# Values of other authors, collected in patent publication EP0184471A1, “Product containing an antiprogestomimetic and a uterotonic substance” (ROUSSEL-UCLAF, priority 1984, dated 1986).
# At least one structure is not confirmed: it was looked up by name or label, or the drawing left a doubt.
# System: état de grossesse
# Conditions: doses and methods of administration tested so far; cited from earlier work
compound,measurement,value
"CC#C[C@]1(O)CC[C@H]2[C@@H]3CCC4=CC(=O)CCC4=C3[C@@H](c3ccc(N(C)C)cc3)C[C@@]21C [RU 486, 11β-(4-diméthylaminophényl) 170 - hydroxy 17α-(prop-l-ynyl) estra 4,9 - dièn 3 - one]",pourcentage d'efficacité,< 100%
